# Results taken from PubChem BioAssay AID330 (DTP/NCI, 2004).
# The list does not hold the whole screen: it is rich in T/C values a quarter to a half above the control, in often repeated tests (any T/C) and in doses without a T/C. Other doses and runs of a compound stand elsewhere. T/C gives the treated animals as a percentage of the vehicle group. Some doses have a count of surviving animals in place of a T/C: the source holds a T/C of zero for them, seemingly a mark for toxic or unscored doses. Some survivor counts are full or nearly so, which does not show that the dose was tolerated: the source hardly ever lists a survival T/C far under the control, and the zero likely stands for such cases as well. Counts of survivors are from the toxicity check (mostly the fifth day) where no day follows; animals may have died later. Schedule codes are those of the source, taken here to give the interval after Q, in days (D) or hours (H), and the number of doses after X. For survival time, this PubChem deposit counts one and a half times the control or more as active, and values a quarter to a half above the control carry no call in these data; other NCI protocols may use other cut-offs. Some doses were run more than once; the results are listed from low to high. Some T/C values carry the count of animals alive at the toxicity check (mostly the fifth day); without a count, all were alive then.
# System: P388 leukemia ip, CD2F1 mice, survival T/C
# Assay: NCI In Vivo Anticancer Drug Screen. Data for tumor model P388 Leukemia (intraperitoneal) in CD2F1 (CDF1) mice
# Details: T/C endpoint: median survival time, higher T/C = longer survival
# [1] = dose: 50.0 mg/kg/injection, schedule: Q01DX009 (ip), vehicle: saline with Tween-80
# [2] = dose: 100.0 mg/kg/injection, schedule: Q01DX009 (ip), vehicle: saline with Tween-80
# [3] = dose: 200.0 mg/kg/injection, schedule: Q01DX009 (ip), vehicle: saline with Tween-80
# [4] = dose: 6.25 mg/kg/injection, schedule: Q01DX009 (ip), vehicle: saline with Tween-80
# [5] = dose: 25.0 mg/kg/injection, schedule: Q01DX009 (ip), vehicle: saline with Tween-80
# [6] = dose: 50.0 mg/kg/injection, schedule: Q01DX005 (ip), vehicle: Klucel (hydroxypropylcellulose) (HPC)
compound,measurement,setting,value
CCCCCCCC(=O)O[C@H]1[C@H]2[C@@H](CC1(C)C)C(=O)[C@]13O[C@H]1C(=O)[C@]1(CO1)[C@]23C,T/C,"dose: 3.3 mg/kg/injection, schedule: Q01DX009 (ip), vehicle: saline with Tween-80",127 % of control
same,T/C,"dose: 5.0 mg/kg/injection, schedule: Q01DX009 (ip), vehicle: saline",140 % of control [5 of 6 alive]
same,survivor count,"dose: 20.0 mg/kg/injection, schedule: Q01DX009 (ip), vehicle: saline with Tween-80",3 of 6
same,survivor count,"dose: 20.0 mg/kg/injection, schedule: Q01DX009 (ip), vehicle: saline",1 of 6
CCCCCCCCCCCCCC(=O)OCCN1CCN(CCCN2c3ccccc3Sc3ccc(C(F)(F)F)cc32)CC1,survivor count,[1],6 of 6
same,survivor count,[2],1 of 6
same,survivor count,[3],0 of 6
CC(C)(C)c1cc(C(=O)O)c(SSc2ccccc2)c(C(=O)O)c1,survivor count,"dose: 200.0 mg/kg/injection, schedule: Q04DX002 (ip), vehicle: Klucel (hydroxypropylcellulose) (HPC)",5 of 6
same,survivor count,"dose: 400.0 mg/kg/injection, schedule: Q04DX002 (ip), vehicle: Klucel (hydroxypropylcellulose) (HPC)",0 of 6
CS(=O)(=O)OCCN(CCOS(C)(=O)=O)c1ccc(N=Nc2ccccc2)cc1,T/C,[4],144 and 147 % of control
same,T/C,[5],141 % of control
same,survivor count,[1],5 of 6
same,survivor count,[2],6 of 6
same,survivor count,[3],4 of 6
CCC(C)NC1(N(C)C)N=C(N(C)C)N=C(N(C)C)O1 (stereo not given),survivor count,"dose: 200.0 mg/kg/injection, schedule: Q01DX005 (ip), vehicle: saline",0 of 6
O=C(NCSC1=NCCS1)NCSC1=NCCS1,survivor count,"dose: 50.0 mg/kg/injection, schedule: Q01DX009 (ip), vehicle: saline",6 of 6
same,survivor count,"dose: 200.0 mg/kg/injection, schedule: Q01DX009 (ip), vehicle: saline",5 of 6
Cc1cc(N)c(C)c(C)c1O,survivor count,[2],3 of 6
CC1OC(C)C(O)C2=C1C(=O)c1ccccc1C2=O (stereo not given),survivor count,"dose: 240.0 mg/kg/injection, schedule: Q01DX005 (ip), vehicle: saline with Tween-80",0 of 6
[CH3][Sn]([CH3])([O]C(=O)CNC(=O)c1ccccc1)[O]C(=O)CNC(=O)c1ccccc1,survivor count,"dose: 100.0 mg/kg/injection, schedule: Q01DX001 (ip), vehicle: saline",0 of 6
same,survivor count,"dose: 200.0 mg/kg/injection, schedule: Q01DX001 (ip), vehicle: saline",0 of 6
same,survivor count,"dose: 400.0 mg/kg/injection, schedule: Q01DX001 (ip), vehicle: saline",0 of 6
Cc1nnc2sc3c(Cl)c4nn5c(C)nnc5sc4c(Cl)c3nn12,survivor count,[4],6 of 6
same,survivor count,"dose: 12.5 mg/kg/injection, schedule: Q01DX009 (ip), vehicle: saline with Tween-80",6 of 6
same,survivor count,[5],6 of 6
O=C1CC(c2ccccc2)NCCCCN2C(=O)C=Cc3ccccc3C2CCN1 (stereo not given),survivor count,"dose: 25.0 mg/kg/injection, schedule: Q01DX009 (ip), vehicle: Klucel (hydroxypropylcellulose) (HPC)",6 of 6
same,survivor count,"dose: 50.0 mg/kg/injection, schedule: Q01DX009 (ip), vehicle: Klucel (hydroxypropylcellulose) (HPC)",6 of 6
Oc1ccc(CCC2CCC(c3ccc(O)cc3)CO2)cc1 (stereo not given),survivor count,[6],6 of 6
COc1cccc(C=O)c1OS(=O)(=O)c1ccc(C)cc1,survivor count,"dose: 200.0 mg/kg/injection, schedule: Q01DX009 (ip), vehicle: other",2 of 6
same,survivor count,"dose: 400.0 mg/kg/injection, schedule: Q01DX009 (ip), vehicle: other",2 of 6
CCN=P1(N(C(C)C)C(C)C)N(CC)N=NN1C(C)(C)C (stereo not given),survivor count,"dose: 25.0 mg/kg/injection, schedule: Q01DX005 (ip), vehicle: Klucel (hydroxypropylcellulose) (HPC)",0 of 6
same,survivor count,[6],4 of 6
same,survivor count,"dose: 100.0 mg/kg/injection, schedule: Q01DX005 (ip), vehicle: Klucel (hydroxypropylcellulose) (HPC)",0 of 6
same,survivor count,"dose: 200.0 mg/kg/injection, schedule: Q01DX005 (ip), vehicle: Klucel (hydroxypropylcellulose) (HPC)",0 of 6
O=S1(=O)OCCCO1,survivor count,"dose: 100.0 mg/kg/injection, schedule: Q01DX005 (ip), vehicle: saline",0 of 6
